In paper doi:10.1101/686014 one finds binding data, which are given here for one molecule.

No constants are given. Whether binding was seen depends on the method and setting. Binding seen in cells or lysates may run through a third protein. Some binding calls cover weakened binding; strength is not graded here.

The assay concerns the target T1, Daughterless (Drosophila (endogenous in third instar larval ventral nerve cord)) (UniProt P11420).
T1 sequence: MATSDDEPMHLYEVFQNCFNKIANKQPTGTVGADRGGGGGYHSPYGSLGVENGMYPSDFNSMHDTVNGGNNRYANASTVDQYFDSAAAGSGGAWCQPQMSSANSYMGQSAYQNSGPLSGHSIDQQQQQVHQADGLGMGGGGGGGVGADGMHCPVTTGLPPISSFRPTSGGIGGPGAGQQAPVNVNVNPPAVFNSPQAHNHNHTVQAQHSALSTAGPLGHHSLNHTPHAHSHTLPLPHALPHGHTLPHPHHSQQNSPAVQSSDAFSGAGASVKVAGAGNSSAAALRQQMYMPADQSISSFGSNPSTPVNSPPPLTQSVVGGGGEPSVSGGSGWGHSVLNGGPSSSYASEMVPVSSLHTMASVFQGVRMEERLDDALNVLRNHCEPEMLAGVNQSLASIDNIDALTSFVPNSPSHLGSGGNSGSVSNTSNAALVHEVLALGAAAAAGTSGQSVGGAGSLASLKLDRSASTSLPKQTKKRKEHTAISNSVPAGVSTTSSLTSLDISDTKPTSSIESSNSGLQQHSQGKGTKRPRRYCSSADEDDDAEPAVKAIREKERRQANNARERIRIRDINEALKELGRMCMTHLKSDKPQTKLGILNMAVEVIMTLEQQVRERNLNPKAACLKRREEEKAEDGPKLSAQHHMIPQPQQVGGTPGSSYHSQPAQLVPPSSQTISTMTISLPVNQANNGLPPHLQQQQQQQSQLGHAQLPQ
The assay can be described thus: proximity ligation.

B1: Extramacrochaete (protein, UniProt P18491 1-199)
chain: MKSLTAVCQTGASGMPALNASGRIQRHPTHRGDGENAEMKMYLSKLKDLVPFMPKNRKLTKLEIIQHVIDYICDLQTELETHPEMGNFDAAAALTAVNGLHEDEDSDMEDADAEAEAEVDPDILAQRLNAEQPAKVSSPAARLPLTDRQTPNTLVAPAHPQQHQQQQQLQLQQQQLQSQQQLSNSLATPQNAEKDSRQS
As for B1, the binding result is “binds”.
